Source: PubChem BioAssay AID504749 (NCATS, 2011).

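A panel of P. falciparum strains inside erythrocytes is exposed to compounds for three days, then a DNA-binding dye reports the amount of parasite DNA. Each compound was titrated across a series from about 0.000037 to 29 µM. The number is the fitted AC50, the concentration giving a half-maximal change in signal; a lower value means higher potency, whether the curve shows a decrease or an increase. Calls follow the curve class and fit quality: every row here is inconclusive, covering signal-raising curves and weak, poorly fitted, partial or highest-dose-only inhibition curves.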

Values are in µM. All entries here are filed as inconclusive. These entries are mostly ones the record files as inconclusive; other results of the assay are not listed here. A potency from a partial, single-point or poor curve is only a rough figure. Some entries filed as inconclusive have a full curve.

SMILES | tested on / at | Potency (µM) | curve as filed
CN1CCC(Nc2ncc3ncnc(Nc4ccc(F)c(Cl)c4)c3n2)CC1 | CP185 | 12.59 | inhibitor, single point
CN1CCC(Nc2ncc3ncnc(Nc4ccc(F)c(Cl)c4)c3n2)CC1 | CP192 | 10.69 | inhibitor, single point
CN1CCC(Nc2ncc3ncnc(Nc4ccc(F)c(Cl)c4)c3n2)CC1 | CP329 | 15.1 | inhibitor, single point
CN1CCC(Nc2ncc3ncnc(Nc4ccc(F)c(Cl)c4)c3n2)CC1 | TAB113 | 10 | inhibitor, single point
CN1CCC(Nc2ncc3ncnc(Nc4ccc(F)c(Cl)c4)c3n2)CC1 | CP238 | 10 | inhibitor, single point
CN1CCC(Nc2ncc3ncnc(Nc4ccc(F)c(Cl)c4)c3n2)CC1 | CP247 | 5.012 | inhibitor, partial curve
CN1CCC(Nc2ncc3ncnc(Nc4ccc(F)c(Cl)c4)c3n2)CC1 | CP194 | 15.1 | inhibitor, single point
CN1CCC(Nc2ncc3ncnc(Nc4ccc(F)c(Cl)c4)c3n2)CC1 | PAD | 17.78 | inhibitor, single point
CN1CCC(Nc2ncc3ncnc(Nc4ccc(F)c(Cl)c4)c3n2)CC1 | HB3 | 15.85 | inhibitor, single point
CN1CCC(Nc2ncc3ncnc(Nc4ccc(F)c(Cl)c4)c3n2)CC1 | CP215 | 10.69 | inhibitor, single point
CN1CCC(Nc2ncc3ncnc(Nc4ccc(F)c(Cl)c4)c3n2)CC1 | PC26 | 12 | inhibitor, partial curve, poor fit
CN1CCC(Nc2ncc3ncnc(Nc4ccc(F)c(Cl)c4)c3n2)CC1 | ATS95 | 8.912 | inhibitor, partial curve
CN1CCC(Nc2ncc3ncnc(Nc4ccc(F)c(Cl)c4)c3n2)CC1 | CP265 | 14.13 | inhibitor, single point
CN1CCC(Nc2ncc3ncnc(Nc4ccc(F)c(Cl)c4)c3n2)CC1 | DFO2036 | 10 | inhibitor, partial curve
CN1CCC(Nc2ncc3ncnc(Nc4ccc(F)c(Cl)c4)c3n2)CC1 | AS120 | 8.912 | inhibitor, partial curve
CN1CCC(Nc2ncc3ncnc(Nc4ccc(F)c(Cl)c4)c3n2)CC1 | ATS189 | 10 | inhibitor, single point
CN1CCC(Nc2ncc3ncnc(Nc4ccc(F)c(Cl)c4)c3n2)CC1 | DIV30 | 10.69 | inhibitor, single point
CN1CCC(Nc2ncc3ncnc(Nc4ccc(F)c(Cl)c4)c3n2)CC1 | CP237 | 12.59 | inhibitor, single point
CN1CCC(Nc2ncc3ncnc(Nc4ccc(F)c(Cl)c4)c3n2)CC1 | 3D7 | 11.22 | inhibitor, single point
CN1CCC(Nc2ncc3ncnc(Nc4ccc(F)c(Cl)c4)c3n2)CC1 | CP269 | 16.94 | inhibitor, single point
CN1CCC(Nc2ncc3ncnc(Nc4ccc(F)c(Cl)c4)c3n2)CC1 | CP250 | 11.22 | inhibitor, single point
CN1CCC(Nc2ncc3ncnc(Nc4ccc(F)c(Cl)c4)c3n2)CC1 | FAB9 | 17.78 | inhibitor, single point
CN1CCC(Nc2ncc3ncnc(Nc4ccc(F)c(Cl)c4)c3n2)CC1 | CP266 | 10.69 | inhibitor, single point
CN1CCC(Nc2ncc3ncnc(Nc4ccc(F)c(Cl)c4)c3n2)CC1 | CP211 | 13.46 | inhibitor, single point
CN1CCC(Nc2ncc3ncnc(Nc4ccc(F)c(Cl)c4)c3n2)CC1 | CP297 | 15.1 | inhibitor, partial curve
CN1CCC(Nc2ncc3ncnc(Nc4ccc(F)c(Cl)c4)c3n2)CC1 | CP191 | 7.943 | inhibitor, partial curve
CN1CCC(Nc2ncc3ncnc(Nc4ccc(F)c(Cl)c4)c3n2)CC1 | CP260 | 8.912 | inhibitor, single point
CN1CCC(Nc2ncc3ncnc(Nc4ccc(F)c(Cl)c4)c3n2)CC1 | CP305 | 13.46 | inhibitor, partial curve
CN1CCC(Nc2ncc3ncnc(Nc4ccc(F)c(Cl)c4)c3n2)CC1 | CP268 | 12 | inhibitor, partial curve
CN1CCC(Nc2ncc3ncnc(Nc4ccc(F)c(Cl)c4)c3n2)CC1 | CP325 | 15.1 | inhibitor, partial curve
CN(C)CCCOc1nn(Cc2ccccc2)c2ccccc12 | CP268 | 7.208 | inhibitor, partial curve, poor fit
CN(C)CCCOc1nn(Cc2ccccc2)c2ccccc12 | PC26 | 7.208 | inhibitor, partial curve, poor fit
CN(C)CCCOc1nn(Cc2ccccc2)c2ccccc12 | AA1029 | 3.162 | inhibitor, partial curve, poor fit
CN(C)CCCOc1nn(Cc2ccccc2)c2ccccc12 | CP265 | 3.548 | inhibitor, single point
CN(C)CCCOc1nn(Cc2ccccc2)c2ccccc12 | 7G8 | 7.08 | inhibitor, single point
CN(C)CCCOc1nn(Cc2ccccc2)c2ccccc12 | DIV14 | 4.053 | inhibitor, partial curve
CN(C)CCCOc1nn(Cc2ccccc2)c2ccccc12 | DIV17 | 8.087 | inhibitor, single point
CN(C)CCCOc1nn(Cc2ccccc2)c2ccccc12 | TAB165 | 3.548 | inhibitor, single point
CN(C)CCCOc1nn(Cc2ccccc2)c2ccccc12 | GB4 | 2.031 | inhibitor, partial curve
CN(C)CCCOc1nn(Cc2ccccc2)c2ccccc12 | CP291 | 5.726 | inhibitor, single point
CN(C)CCCOc1nn(Cc2ccccc2)c2ccccc12 | ATS95 | 10 | inhibitor, single point
CN(C)CCCOc1nn(Cc2ccccc2)c2ccccc12 | CP203 | 5.726 | inhibitor, partial curve
CN(C)CCCOc1nn(Cc2ccccc2)c2ccccc12 | CP247 | 3.548 | inhibitor, single point
CN(C)CCCOc1nn(Cc2ccccc2)c2ccccc12 | CP335 | 1.282 | inhibitor, full curve

Repeated from the top, 4 entries:

| SMILES | tested on / at | Potency (µM) | curve as filed |
|---|---|---|---|
| `CN1CCC(Nc2ncc3ncnc(Nc4ccc(F)c(Cl)c4)c3n2)CC1` | CP185 | 12.59 | inhibitor, single point |
| `CN1CCC(Nc2ncc3ncnc(Nc4ccc(F)c(Cl)c4)c3n2)CC1` | CP192 | 10.69 | inhibitor, single point |
| `CN1CCC(Nc2ncc3ncnc(Nc4ccc(F)c(Cl)c4)c3n2)CC1` | CP329 | 15.1 | inhibitor, single point |
| `CN1CCC(Nc2ncc3ncnc(Nc4ccc(F)c(Cl)c4)c3n2)CC1` | TAB113 | 10 | inhibitor, single point |